Test results from PubChem BioAssay AID248 (DTP/NCI, 2004).
The list does not hold the whole screen: it covers a few groups of compounds. Other doses and runs of a compound may be missing. T/C: endpoint of the treated group in % of that of the vehicle group. For survival time, the PubChem record calls one and a half times the control and up active, and a quarter to a half above the control has no call in these data; cut-offs in other NCI protocols can differ. Some entries show no survivor count and are marked so; the dose need not have been tolerated. Schedules are NCI's codes, read here as Q, the interval in days (D) or hours (H), X, the number of doses. Some doses were run more than once; the results are listed from low to high. Some schedules carry Z or #; the key to these is not given.

Test system: L1210 leukemia ip in BDF1 mice, survival T/C
Assay: NCI In Vivo Anticancer Drug Screen. Data for tumor model L1210 Leukemia (intraperitoneal) in B6D2F1 (BDF1) mice
Details: higher T/C = longer survival

NC(Cc1cccc(N(CCCl)CCCl)c1)C(=O)O (stereo unspecified)
T/C (T/C endpoint: mean survival time, dose: 4.0 mg/kg/injection, schedule: Q01DX001 (sc), vehicle: carboxymethylcellulose (CMC)): 112 % of control [survivor count not shown]
T/C (T/C endpoint: mean survival time, dose: 4.0 mg/kg/injection, schedule: Q01DX009 (ip), vehicle: carboxymethylcellulose (CMC)): 128 % of control [survivor count not shown]
T/C (T/C endpoint: mean survival time, dose: 4.0 mg/kg/injection, schedule: Q01DX009 (oral), vehicle: carboxymethylcellulose (CMC)): 137 % of control [survivor count not shown]
T/C (T/C endpoint: mean survival time, dose: 4.0 mg/kg/injection, schedule: Q01DX009 (sc), vehicle: carboxymethylcellulose (CMC)): 145 % of control [survivor count not shown]
T/C (T/C endpoint: mean survival time, dose: 4.0 mg/kg/injection, schedule: Q01DX Z (im), vehicle: carboxymethylcellulose (CMC)): 154 % of control [survivor count not shown]
T/C (T/C endpoint: mean survival time, dose: 4.0 mg/kg/injection, schedule: Q01DX Z (ip), vehicle: carboxymethylcellulose (CMC)): 168 % of control [survivor count not shown]
T/C (T/C endpoint: mean survival time, dose: 4.0 mg/kg/injection, schedule: Q01DX Z (oral), vehicle: carboxymethylcellulose (CMC)): 143 % of control [survivor count not shown]
T/C (T/C endpoint: mean survival time, dose: 4.0 mg/kg/injection, schedule: Q01DX Z (sc), vehicle: carboxymethylcellulose (CMC)): 160 % of control [survivor count not shown]
T/C (T/C endpoint: mean survival time, dose: 4.0 mg/kg/injection, schedule: Q## X002 (ip), vehicle: carboxymethylcellulose (CMC)): 146 [survivor count not shown] and 167 % of control [survivor count not shown]
T/C (T/C endpoint: mean survival time, dose: 4.0 mg/kg/injection, schedule: Q## X002 (oral), vehicle: carboxymethylcellulose (CMC)): 142 % of control [survivor count not shown]
T/C (T/C endpoint: mean survival time, dose: 4.0 mg/kg/injection, schedule: Q## X003 (ip), vehicle: carboxymethylcellulose (CMC)): 160 [survivor count not shown] and 164 % of control [survivor count not shown]
T/C (T/C endpoint: mean survival time, dose: 4.0 mg/kg/injection, schedule: Q## X008 (ip), vehicle: carboxymethylcellulose (CMC)): 122 % of control [survivor count not shown]
T/C (T/C endpoint: mean survival time, dose: 4.0 mg/kg/injection, schedule: Q## X016 (ip), vehicle: carboxymethylcellulose (CMC)): 114 % of control [survivor count not shown]
T/C (T/C endpoint: mean survival time, dose: 4.0 mg/kg/injection, schedule: Q## X024 (ip), vehicle: carboxymethylcellulose (CMC)): 132 % of control [survivor count not shown]
T/C (T/C endpoint: mean survival time, dose: 4.4 mg/kg/injection, schedule: Q01DX001 (ip), vehicle: carboxymethylcellulose (CMC)): 134 % of control [survivor count not shown]
T/C (T/C endpoint: mean survival time, dose: 4.44 mg/kg/injection, schedule: Q01DX009 (ip), vehicle: other): 140 % of control [survivor count not shown]
T/C (T/C endpoint: mean survival time, dose: 5.0 mg/kg/injection, schedule: Q01DX001 (ip), vehicle: saline): 111 % of control [survivor count not shown]
T/C (T/C endpoint: mean survival time, dose: 5.0 mg/kg/injection, schedule: Q01DX009 (ip), vehicle: saline): 148 [survivor count not shown] and 179 % of control [survivor count not shown]
T/C (T/C endpoint: mean survival time, dose: 5.0 mg/kg/injection, schedule: Q01DX010 (ip), vehicle: saline): 86 [survivor count not shown] and 87 % of control [survivor count not shown]
T/C (T/C endpoint: mean survival time, dose: 6.0 mg/kg/injection, schedule: Q01DX Z (oral), vehicle: carboxymethylcellulose (CMC)): 130 [survivor count not shown] and 137 % of control [survivor count not shown]
T/C (T/C endpoint: mean survival time, dose: 6.6 mg/kg/injection, schedule: Q01DX001 (ip), vehicle: carboxymethylcellulose (CMC)): 143 % of control [survivor count not shown]
T/C (T/C endpoint: mean survival time, dose: 8.0 mg/kg/injection, schedule: Q01DX001 (ip), vehicle: carboxymethylcellulose (CMC)): 113 [survivor count not shown] and 170 % of control [survivor count not shown]
T/C (T/C endpoint: mean survival time, dose: 8.0 mg/kg/injection, schedule: Q01DX001 (oral), vehicle: carboxymethylcellulose (CMC)): 123 % of control [survivor count not shown]
T/C (T/C endpoint: mean survival time, dose: 8.0 mg/kg/injection, schedule: Q01DX001 (sc), vehicle: carboxymethylcellulose (CMC)): 119 % of control [survivor count not shown]
T/C (T/C endpoint: mean survival time, dose: 8.0 mg/kg/injection, schedule: Q01DX009 (oral), vehicle: carboxymethylcellulose (CMC)): 110 % of control [survivor count not shown]
T/C (T/C endpoint: mean survival time, dose: 8.0 mg/kg/injection, schedule: Q01DX009 (sc), vehicle: carboxymethylcellulose (CMC)): 97 % of control [survivor count not shown]
T/C (T/C endpoint: mean survival time, dose: 8.0 mg/kg/injection, schedule: Q01DX Z (im), vehicle: carboxymethylcellulose (CMC)): 100 [survivor count not shown] and 134 % of control [survivor count not shown]
T/C (T/C endpoint: mean survival time, dose: 8.0 mg/kg/injection, schedule: Q01DX Z (ip), vehicle: carboxymethylcellulose (CMC)): 101 % of control [survivor count not shown]
T/C (T/C endpoint: mean survival time, dose: 8.0 mg/kg/injection, schedule: Q01DX Z (sc), vehicle: carboxymethylcellulose (CMC)): 95 [survivor count not shown] and 112 % of control [survivor count not shown]
T/C (T/C endpoint: mean survival time, dose: 8.0 mg/kg/injection, schedule: Q## X002 (ip), vehicle: carboxymethylcellulose (CMC)): 124 [survivor count not shown] and 184 % of control [survivor count not shown]
T/C (T/C endpoint: mean survival time, dose: 8.0 mg/kg/injection, schedule: Q## X002 (oral), vehicle: carboxymethylcellulose (CMC)): 139 % of control [survivor count not shown]
T/C (T/C endpoint: mean survival time, dose: 8.0 mg/kg/injection, schedule: Q## X003 (ip), vehicle: carboxymethylcellulose (CMC)): 140 [survivor count not shown] and 180 % of control [survivor count not shown]
T/C (T/C endpoint: mean survival time, dose: 8.0 mg/kg/injection, schedule: Q## X008 (ip), vehicle: carboxymethylcellulose (CMC)): 158 % of control [survivor count not shown]
T/C (T/C endpoint: mean survival time, dose: 8.0 mg/kg/injection, schedule: Q## X016 (ip), vehicle: carboxymethylcellulose (CMC)): 157 % of control [survivor count not shown]
T/C (T/C endpoint: mean survival time, dose: 8.0 mg/kg/injection, schedule: Q## X024 (ip), vehicle: carboxymethylcellulose (CMC)): 151 % of control [survivor count not shown]
T/C (T/C endpoint: mean survival time, dose: 8.88 mg/kg/injection, schedule: Q01DX001 (ip), vehicle: saline): 170 % of control [survivor count not shown]
T/C (T/C endpoint: mean survival time, dose: 10.0 mg/kg/injection, schedule: Q01DX001 (ip), vehicle: carboxymethylcellulose (CMC)): 135 [survivor count not shown] and 163 % of control [survivor count not shown]
T/C (T/C endpoint: mean survival time, dose: 10.0 mg/kg/injection, schedule: Q01DX001 (ip), vehicle: saline): 114 % of control [survivor count not shown]
T/C (T/C endpoint: mean survival time, dose: 10.0 mg/kg/injection, schedule: Q01DX009 (ip), vehicle: saline): 90 % of control [survivor count not shown]
T/C (T/C endpoint: mean survival time, dose: 12.0 mg/kg/injection, schedule: Q01DX Z (oral), vehicle: carboxymethylcellulose (CMC)): 94 % of control [survivor count not shown]
T/C (T/C endpoint: mean survival time, dose: 12.0 mg/kg/injection, schedule: Q01DX Z (sc), vehicle: carboxymethylcellulose (CMC)): 88 % of control [survivor count not shown]
T/C (T/C endpoint: mean survival time, dose: 16.0 mg/kg/injection, schedule: Q01DX001 (ip), vehicle: carboxymethylcellulose (CMC)): 93 % of control [survivor count not shown]
T/C (T/C endpoint: mean survival time, dose: 16.0 mg/kg/injection, schedule: Q01DX001 (oral), vehicle: carboxymethylcellulose (CMC)): 128 % of control [survivor count not shown]
T/C (T/C endpoint: mean survival time, dose: 16.0 mg/kg/injection, schedule: Q01DX001 (sc), vehicle: carboxymethylcellulose (CMC)): 137 % of control [survivor count not shown]
T/C (T/C endpoint: mean survival time, dose: 16.0 mg/kg/injection, schedule: Q## X002 (ip), vehicle: carboxymethylcellulose (CMC)): 225 % of control [survivor count not shown]
T/C (T/C endpoint: mean survival time, dose: 16.0 mg/kg/injection, schedule: Q## X002 (oral), vehicle: carboxymethylcellulose (CMC)): 101 % of control [survivor count not shown]
T/C (T/C endpoint: mean survival time, dose: 16.0 mg/kg/injection, schedule: Q## X003 (ip), vehicle: carboxymethylcellulose (CMC)): 129 % of control [survivor count not shown]
T/C (T/C endpoint: mean survival time, dose: 16.0 mg/kg/injection, schedule: Q## X024 (ip), vehicle: carboxymethylcellulose (CMC)): 93 % of control [survivor count not shown]
T/C (T/C endpoint: mean survival time, dose: 20.0 mg/kg/injection, schedule: Q01DX001 (ip), vehicle: carboxymethylcellulose (CMC)): 146 % of control [survivor count not shown]
T/C (T/C endpoint: mean survival time, dose: 20.0 mg/kg/injection, schedule: Q01DX001 (ip), vehicle: saline): 156 % of control [survivor count not shown]
T/C (T/C endpoint: mean survival time, dose: 32.0 mg/kg/injection, schedule: Q01DX001 (oral), vehicle: carboxymethylcellulose (CMC)): 95 % of control [survivor count not shown]
T/C (T/C endpoint: mean survival time, dose: 32.0 mg/kg/injection, schedule: Q01DX001 (sc), vehicle: carboxymethylcellulose (CMC)): 114 % of control [survivor count not shown]
T/C (T/C endpoint: mean survival time, dose: 40.0 mg/kg/injection, schedule: Q01DX001 (ip), vehicle: carboxymethylcellulose (CMC)): 108 % of control [survivor count not shown]
T/C (T/C endpoint: mean survival time, dose: 80.0 mg/kg/injection, schedule: Q01DX001 (ip), vehicle: carboxymethylcellulose (CMC)): 108 [survivor count not shown] and 111 % of control [survivor count not shown]
T/C (T/C endpoint: mean survival time, dose: 120.0 mg/kg/injection, schedule: Q01DX001 (ip), vehicle: carboxymethylcellulose (CMC)): 114 % of control [survivor count not shown]
T/C (T/C endpoint: mean survival time, dose: 180.0 mg/kg/injection, schedule: Q01DX001 (ip), vehicle: carboxymethylcellulose (CMC)): 129 % of control [survivor count not shown]
T/C (T/C endpoint: mean survival time, dose: 270.0 mg/kg/injection, schedule: Q01DX001 (ip), vehicle: carboxymethylcellulose (CMC)): 100 [survivor count not shown] and 112 % of control [survivor count not shown]
T/C (T/C endpoint: mean survival time, dose: 400.0 mg/kg/injection, schedule: Q01DX001 (ip), vehicle: carboxymethylcellulose (CMC)): 107 % of control [survivor count not shown]
T/C (T/C endpoint: median survival time, dose: 1.25 mg/kg/injection, schedule: Q01DX009 (ip), vehicle: saline): 160 [survivor count not shown] and 193 % of control [survivor count not shown]
T/C (T/C endpoint: median survival time, dose: 2.5 mg/kg/injection, schedule: Q01DX009 (ip), vehicle: saline): 120 [survivor count not shown] and 186 % of control [survivor count not shown]
T/C (T/C endpoint: median survival time, dose: 5.0 mg/kg/injection, schedule: Q01DX009 (ip), vehicle: saline): 100 % of control [survivor count not shown]
